# For part of these data: No signal at the amounts used counts as a negative. For part of these data: At least one verdict rests on a figure or table, not on a statement of the authors. For part of these data: For at least one entry, the source does not settle the construct or the ends of the probe.
# Legend:
# [1] = target: cMet-Fc (HGFR ectodomain fused to human IgG1 Fc) (human) (UniProt P08581); assay: competition filter binding; details: SI names it as control competitor, text calls it non-binding variant, Supp Fig 9 legend lists only the L4 mutant; 1x PBS pH 7.4, 2 mM MgCl2, 0.1 mg/mL E. coli tRNA, 0.25 mg/mL BSA, 37 C, 30 min; ~25 fmol 32P-trCLN3, ~50 nM cMet, 25 uL, nitrocellulose filter; commercial protein; single-stranded DNA
# [2] = target: cMet-Fc (HGFR ectodomain fused to human IgG1 Fc) (human) (UniProt P08581); assay: filter binding; details: tracer in competition assay; 1x PBS pH 7.4, 2 mM MgCl2, 0.1 mg/mL E. coli tRNA, 0.25 mg/mL BSA, 37 C, 30 min; ~25 fmol 32P-trCLN3, ~50 nM cMet, 25 uL, nitrocellulose filter; commercial protein; label: 5'-32P; folded or branched DNA
# [3] = target: cMet-Fc (HGFR ectodomain fused to human IgG1 Fc) (human) (UniProt P08581); assay: cited; details: 1x PBS pH 7.4, 2 mM MgCl2, 0.1 mg/mL E. coli tRNA, 0.25 mg/mL BSA, 37 C, 30 min; ~25 fmol 32P-trCLN3, ~50 nM cMet, 25 uL, nitrocellulose filter; commercial protein; folded or branched DNA
sequence,measurement,setting,value
TGGATGATAGCTCGGTCGGGGTGGATGGGTTGGCAAGTCT [trCLN3.mut],binding result,[1],no binding
TGGATGGTAGCTCGGTCGGGGTGGGTGGGTTGGCAAGTCT [32P-trCLN3],binding result,[2],binds
TGGATGGTAGCTCGGTCGGGGTGGGTGGGTTGGCAAGTCT [trCLN3],Kd,[3],38 nM
